For the data set, the system named is T1, PinR (AIY20223.2, TetR family) (Pimelobacter simplex).
T1 sequence: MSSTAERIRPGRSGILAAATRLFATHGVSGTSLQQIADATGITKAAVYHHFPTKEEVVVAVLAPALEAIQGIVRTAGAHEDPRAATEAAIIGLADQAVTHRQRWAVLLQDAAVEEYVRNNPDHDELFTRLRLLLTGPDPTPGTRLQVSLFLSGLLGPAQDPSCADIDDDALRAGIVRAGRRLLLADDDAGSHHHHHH
As to the kind of experiment: binding assay. The settings on record: FRET; scrambled control; QD/TF/DNA 1/4/18; purified recombinant protein; label: Cy5 at 5' and 3'.

The exact form of at least one protein or probe is not confirmed. No signal at the amounts used counts as a negative. Where a protein sequence is shown, tags need not be part of it.

For the sequence “TGTGCGTGTCCCTCGCTCGGTTTCAGA / TCGTGAAACCGAGCGAGGGACACGCACA [scrambled (scbd)]”, the binding result was “no binding”.
